Data as given in PubChem BioAssay AID504793 (Drosophila RNAi Screening Center, 2011).
The deposit covers about 23,000 reagents; below is a random part of those with a known target gene and a result. Of all reagents, 62 (0.27%) got an active call. 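Calls come from follow-up tests whose scores are not deposited, so confirmed genes may have low counts here; counts are not normalised per plate.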 The raw values are shown without normalisation. Names joined by + are all predicted targets of the reagent.

Assay: 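Genes required for cells to halt at G2/M after double-strand DNA breaks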 (primary screen)
System: Drosophila S2R+ cells
Reagents: long dsRNA against Drosophila genes, about 0.25 µg dsRNA per well
Duration: 4 days of dsRNA, then 4 hours of drug before read-out
Conditions: doxorubicin 0.5 µM for 4 hours to cause double-strand breaks, in cells also given a low, harmless dose of dsRNA against nbs to sensitise the assay
Read-out: 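Per-well count of mitotic cells stained for phospho-histone H3 after doxorubicin exposure, used as mitotic index; counts are raw and not normalised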
Reading the numbers: mitotic cells: higher = more cells in mitosis, weaker G2 arrest
Active means: 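a call needs confirmation in secondary tests, with other dsRNAs and a check of mitotic timing without damage, not just a high primary count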
Meaning of the calls: active = confirmed in follow-up tests; inactive = not confirmed

target gene	amplicon	mitotic cells, replicate 1	mitotic cells, replicate 2	Outcome
Dys + snoRNA:Me18S-A1374	DRSC16232	12		inactive
CG15362	DRSC00392	4		inactive
Sodh1 (Sorbitol dehydrogenase 1)	DRSC12605	9		inactive
Sodh1 (Sorbitol dehydrogenase 1)	DRSC26280	6		inactive
Pus10 (Pseudouridine synthase 10)	DRSC00629	10		inactive
Ugt49C1 (UDP-glycosyltransferase family 49 member C1)	DRSC04252	9		inactive
Ugt49C1 (UDP-glycosyltransferase family 49 member C1)	DRSC27301	5		inactive
nemy (no extended memory)	DRSC05357	6		inactive
nemy (no extended memory)	DRSC07262	3		inactive
nemy (no extended memory)	DRSC26532	7		inactive
CG15547	DRSC15085	8		inactive
CG15547	DRSC29577	3		inactive
Vha68-2 (Vacuolar H[+] ATPase 68 kDa subunit 2)	DRSC02721	4		inactive
Vha68-2 (Vacuolar H[+] ATPase 68 kDa subunit 2)	DRSC28637	7		inactive
CG34133	DRSC16319	8		inactive
CG34133	DRSC22239	7		inactive
CG34133	DRSC25658	3		inactive
CG34133	DRSC29408	5		inactive
CG15249	DRSC17978	4		inactive
Argp (Arginine phosphatase)	DRSC16510	8		inactive
CG8915	DRSC20119	3		inactive
CG13408	DRSC13534	23		inactive
CG13408	DRSC14584	7		inactive
CG4891	DRSC01936	7		inactive
CG4891	DRSC24341	6		inactive
CG12507	DRSC19463	9		inactive
Cht4 (Chitinase 4)	DRSC04603	9		inactive
CG17560	DRSC15242	4		inactive
CG8087	DRSC16375	3		inactive
CG8087	DRSC26924	13		inactive
Fkbp12 (FK506-binding protein 12kD)	DRSC07425	1		inactive
CG10991 (retired record)	DRSC12156	6		inactive
Rpn2 (Regulatory particle non-ATPase 2)	DRSC16839	32		inactive
Tmtc1 (Transmembrane O-mannosyltransferase targeting cadherins 1)	DRSC00151	5		inactive
Corp (Companion of reaper)	DRSC17771	3		inactive
Corp (Companion of reaper)	DRSC24622	8		inactive
Rab11	DRSC16809	8		inactive
Rab11	DRSC23620	9		inactive
CASK	DRSC14588	9		inactive
CASK	DRSC16597	12		inactive
CASK	DRSC16598	5		inactive
CASK	DRSC21917	17		inactive
CASK	DRSC29057	3		inactive
CG32512	DRSC20519	12		inactive
CG32512	DRSC20551	4		inactive
CG32512	DRSC21401	13		inactive
w-cup (world cup)	DRSC03048	5		inactive
CG31955	DRSC00285	1		inactive
CG9135	DRSC03144	4		inactive
unc (uncoordinated)	DRSC20511	4		inactive
unc (uncoordinated)	DRSC27962	1		inactive
Mal-A1 (Maltase A1)	DRSC07461	5		inactive
Mal-A1 (Maltase A1)	DRSC29096	3		inactive
EMC8-9 (ER membrane protein complex subunit 8/9)	DRSC04380	6		inactive
Est-6 (Esterase 6)	DRSC11162	8		inactive
Ude (Uracil-DNA degrading factor)	DRSC15324	8		inactive
CG15530	DRSC15067	7		inactive
CG15530	DRSC29873	7		inactive
grh (grainy head)	DRSC05680	25		inactive
grh (grainy head)	DRSC05683	10		inactive
grh (grainy head)	DRSC07624	7		inactive
grh (grainy head)	DRSC07625	9		inactive
grh (grainy head)	DRSC25041	4		inactive
grh (grainy head)	DRSC39163	7		inactive
beta4GalT7 (beta-4-galactosyltransferase 7)	DRSC14385	12		inactive
mei-P22 (meiotic P22)	DRSC11366	7		inactive
Oatp58Dc (Organic anion transporting polypeptide 58Dc)	DRSC04363	5		inactive
Oatp58Dc (Organic anion transporting polypeptide 58Dc)	DRSC24688	8		inactive
RPA2 (Replication protein A2)	DRSC03184	18		inactive
RPA2 (Replication protein A2)	DRSC29750	12		inactive
Vha16-3 (Vacuolar H[+] ATPase 16kD subunit 3)	DRSC10872	5		inactive
Vha16-3 (Vacuolar H[+] ATPase 16kD subunit 3)	DRSC25513	9		inactive
eIF3e (eukaryotic translation initiation factor 3 subunit e)	DRSC11199	6		inactive
RhoGAP19D (Rho GTPase activating protein at 19D)	DRSC20499	4		inactive
RhoGAP19D (Rho GTPase activating protein at 19D)	DRSC20500	9		inactive
Sulf1 (Sulfated)	DRSC16874	3		inactive
Sulf1 (Sulfated)	DRSC27279	9		inactive

11 entries from above, sorted by “mitotic cells, replicate 1”, highest first.
target gene	amplicon	mitotic cells, replicate 1	mitotic cells, replicate 2	Outcome
CASK	DRSC21917	17		inactive
CG32512	DRSC21401	13		inactive
CASK	DRSC16597	12		inactive
CG32512	DRSC20519	12		inactive
Rab11	DRSC23620	9		inactive
CASK	DRSC14588	9		inactive
Rab11	DRSC16809	8		inactive
CASK	DRSC16598	5		inactive
w-cup (world cup)	DRSC03048	5		inactive
CG32512	DRSC20551	4		inactive
CASK	DRSC29057	3		inactive

The list goes on:
target gene	amplicon	mitotic cells, replicate 1	mitotic cells, replicate 2	Outcome
CG4945	DRSC06904	6		inactive
CG4945	DRSC29644	6		inactive
5-HT2B (5-hydroxytryptamine (serotonin) receptor 2B)	DRSC16360	5		inactive
5-HT2B (5-hydroxytryptamine (serotonin) receptor 2B)	DRSC16362	7		inactive
5-HT2B (5-hydroxytryptamine (serotonin) receptor 2B)	DRSC25577	7		inactive
CG6833	DRSC10721	6		inactive
CG6833	DRSC24711	6		inactive
CG18128	DRSC04304	2		inactive
CG18622	DRSC15360	3		inactive
CG11099	DRSC06034	9		inactive
crb (crumbs)	DRSC16927	6		inactive
crb (crumbs)	DRSC39156	13		inactive
CG4988	DRSC02800	4		inactive
CG8366	DRSC07153	11		inactive
Orai	DRSC22061	4		inactive
CG17598	DRSC20636	3		inactive
CG31676	DRSC02387	7		inactive
Helz (Helicase with zinc finger)	DRSC11072	9		inactive
CG12948	DRSC14576	5		inactive
CG12948	DRSC27910	6		inactive
eIF5B (eukaryotic translation initiation factor 5B)	DRSC08429	7		inactive
eIF5B (eukaryotic translation initiation factor 5B)	DRSC08710	3		inactive
eIF5B (eukaryotic translation initiation factor 5B)	DRSC25022	5		inactive
stol (stolid)	DRSC01956	4		inactive
CG15865	DRSC19733	4		inactive
CG2310	DRSC15438	14		inactive
Rpt4R (Regulatory particle triple-A ATPase 4-related)	DRSC10791	3		inactive
Rpt4R (Regulatory particle triple-A ATPase 4-related)	DRSC25928	4		inactive
CG10943	DRSC09805	2		inactive
CG10943	DRSC29258	6		inactive
mRpL44 (mitochondrial ribosomal protein L44)	DRSC12306	5		inactive
mRpL44 (mitochondrial ribosomal protein L44)	DRSC26876	3		inactive
COX5A (Cytochrome c oxidase subunit 5A)	DRSC16611	6		inactive
CG31870	DRSC21681	10		inactive
CG31870	DRSC27838	10		inactive
bel (belle)	DRSC16555	10		inactive
bel (belle)	DRSC25066	11		inactive
Nagk (N-acetylglucosamine kinase)	DRSC15994	3		inactive
phol (pleiohomeotic like)	DRSC10367	6		inactive
phol (pleiohomeotic like)	DRSC23852	11		inactive
CR30409 (pseudo)	DRSC22058	13		inactive
CG4194	DRSC18520	6		inactive
holn1 (hole-in-one)	DRSC02827	4		inactive
holn1 (hole-in-one)	DRSC22822	7		inactive
CHOp24	DRSC18310	3		inactive
Awh (Arrowhead)	DRSC08140	4		inactive
Atac2 (Ada2a-containing complex component 2)	DRSC02053	3		inactive
CG4612	DRSC04478	6		inactive
CG32669	DRSC18864	8		inactive
Proc-R (Proctolin receptor)	DRSC18410	10		inactive
CG31959 (retired record)	DRSC22912	9		inactive
CG3294	DRSC00590	5		inactive
CG3294	DRSC26228	7		inactive
CG2964	DRSC27524	4		inactive
ft (fat)	DRSC00819	5		inactive
toc (toucan)	DRSC00169	9		inactive
toc (toucan)	DRSC00171	7		inactive
toc (toucan)	DRSC00842	8		inactive
nht (no hitter)	DRSC01976	11	14	inactive
CG6052	DRSC10574	3		inactive
Adgf-A (Adenosine deaminase-related growth factor A)	DRSC10566	10		inactive
Adgf-A (Adenosine deaminase-related growth factor A)	DRSC24552	6		inactive
Fib (Fibrillarin)	DRSC04614	4		inactive
